This assay addresses S. cerevisiae Nab2 Zn fingers 5–7 F450A mutant (ZnF567^F450A) (S. cerevisiae) (UniProt P32505). As to the kind of experiment: SEC-MALS; protein with a small excess of A12 RNA; Superdex 200 10/30, 20°C, 50 mM Tris pH 8.5, 100 mM NaCl, 2 mM Mg acetate, 100 μM ZnCl2, 1 mM DTT; both purified. Background: Size exclusion chromatography separates by hydrodynamic size, large species first.

Here are results for 1 molecule from publication PMC5388407.

No constants are given. Whether binding was seen depends on the method and setting.

B1: S. cerevisiae Nab2 Zn fingers 5–7 F450A mutant (ZnF567^F450A) (domain or fragment, UniProt P32505 409-485)
chain: EKSLEQCKFGTHCTNKRCKYRHARSHIMCREGANCTRIDCLAGHPINEDCRFGVNCKNIYCLFRHPPGRVLPEKKGA
In the case of B1, the binding result is reported as “no binding”.
